Drawing on patent publication US20200277332A1, this text covers binding for two molecules.

Amino acid sequences for entries named in this document (tags omitted). Residues count along the entry.
UniProt P35968, residues 20-764: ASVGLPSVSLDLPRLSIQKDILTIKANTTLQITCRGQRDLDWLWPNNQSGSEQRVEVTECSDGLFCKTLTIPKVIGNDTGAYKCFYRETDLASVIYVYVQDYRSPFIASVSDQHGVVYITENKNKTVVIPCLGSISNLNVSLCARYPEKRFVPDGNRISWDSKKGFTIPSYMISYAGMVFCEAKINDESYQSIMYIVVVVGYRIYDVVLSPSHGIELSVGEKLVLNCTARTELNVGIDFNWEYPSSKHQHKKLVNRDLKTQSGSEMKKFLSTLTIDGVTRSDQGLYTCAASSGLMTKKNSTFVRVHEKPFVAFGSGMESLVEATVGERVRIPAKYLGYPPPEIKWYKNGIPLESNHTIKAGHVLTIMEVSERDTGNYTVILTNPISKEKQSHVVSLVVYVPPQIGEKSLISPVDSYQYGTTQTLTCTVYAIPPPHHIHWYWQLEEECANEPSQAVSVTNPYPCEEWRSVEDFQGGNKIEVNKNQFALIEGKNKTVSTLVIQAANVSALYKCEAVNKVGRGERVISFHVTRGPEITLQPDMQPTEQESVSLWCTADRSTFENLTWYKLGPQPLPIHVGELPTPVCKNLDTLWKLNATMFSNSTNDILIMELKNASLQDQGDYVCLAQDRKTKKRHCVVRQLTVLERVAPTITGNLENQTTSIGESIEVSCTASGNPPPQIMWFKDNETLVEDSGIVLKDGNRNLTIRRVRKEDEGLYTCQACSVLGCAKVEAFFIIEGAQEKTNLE

Experiment [1] has as its target VEGF receptor (VEGFR2) (UniProt P35968). The experiment is described as follows: binding and competition with VEGF; method not described (FIGS. 11 and 13).
The target is the same in experiment [2]. The experiment is described as follows: binding and competition with VEGF; method not described (FIGS. 12 and 14).

Results are given in words; binding and its absence hold for the method and conditions named. Some binding calls cover weakened binding; strength is not graded here.

Take NKNFGYDLYR [peptide having an amino acid sequence of SEQ ID NO: 1]: the binding entry in experiment [1] was “binds”.

As for IHGTYKELL [peptide having an amino acid sequence of SEQ ID NO: 2], the binding result in experiment [2] is recorded as “binds”.
